Measurements reported in PubChem BioAssay AID1224828 (NIAID, 2016)
Aim: 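Find genes required for NF-kappaB p65 moving into the nucleus after LPS in mouse macrophages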 (primary screen). Cells: mouse RAW264.7 G9 macrophage reporter cells (GFP-p65, Tnf promoter-mCherry). Reagents: siRNA pool against mouse genes, 100 nM. Time to read-out: 2 days siRNA transfection, then 40 min LPS before fixation. Conditions: LPS (Salmonella minnesota R595) at 10 ng/ml. Measured: 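Imaged p65 nuclear translocation ratio, normalised to the plate median, converted to robust z-scores and averaged across two replicates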. Scale: p65 translocation robust z-score: higher = more nuclear NF-kappaB p65 after LPS than the plate median; nuclear/cytoplasmic p65 ratio: higher = more nuclear NF-kappaB p65. Call rule: 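Called active when z exceeds 3.3 or falls under -1.56 (median of Tlr4 controls), giving activity score of at least 50; no calls for control wells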. Calls: active = hit (p65 shift raised or lowered); inactive = no clear change.
Here is one part, drawn at random, of about 17,000 reagents. In the full data, 762 (4.5%) are marked active. 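Active calls include both raised and lowered p65 entry, mostly lowered; wells with fewer than 50 cells lack a z-score.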 Raw values vary from plate to plate and are shown uncorrected.

With Fosb (Fos B proto-oncogene, AP-1 transcription factor subunit), what does the deposit list?
p65 translocation robust z-score: -1.39; nuclear/cytoplasmic p65 ratio, rep 1: 1.27; nuclear/cytoplasmic p65 ratio, rep 2: 1.18; low cell count flag: enough cells to score; outcome: inactive

What did the screen give for Tbc1d20 (TBC1 domain family, member 20)?
nuclear/cytoplasmic p65 ratio, rep 1: 1.21; nuclear/cytoplasmic p65 ratio, rep 2: 1.05; low cell count flag: fewer than 50 cells per well; well left out of scoring; outcome: inactive

What is on record for Elf4 (E74 like ETS transcription factor 4)?
p65 translocation robust z-score: -0.2; nuclear/cytoplasmic p65 ratio, rep 1: 1.44; nuclear/cytoplasmic p65 ratio, rep 2: 1.34; low cell count flag: enough cells to score; outcome: inactive

What is on record for Sec61b (SEC61 translocon subunit beta)?
p65 translocation robust z-score: -0.2; nuclear/cytoplasmic p65 ratio, rep 1: 1.36; nuclear/cytoplasmic p65 ratio, rep 2: 1.24; low cell count flag: enough cells to score; outcome: inactive

With Mpi (mannose phosphate isomerase), what was measured?
p65 translocation robust z-score: -0.03; nuclear/cytoplasmic p65 ratio, rep 1: 1.46; nuclear/cytoplasmic p65 ratio, rep 2: 1.32; low cell count flag: enough cells to score; outcome: inactive

What did the screen give for P4hb (prolyl 4-hydroxylase, beta polypeptide)?
p65 translocation robust z-score: 0.13; nuclear/cytoplasmic p65 ratio, rep 1: 1.48; nuclear/cytoplasmic p65 ratio, rep 2: 1.42; low cell count flag: enough cells to score; outcome: inactive

For 9330132A10Rik (RIKEN cDNA 9330132A10 gene), what was measured?
p65 translocation robust z-score: 2.58; nuclear/cytoplasmic p65 ratio, rep 1: 1.74; nuclear/cytoplasmic p65 ratio, rep 2: 1.94; low cell count flag: enough cells to score; outcome: inactive

Which result is listed for Lenep (lens epithelial protein)?
p65 translocation robust z-score: 1.28; nuclear/cytoplasmic p65 ratio, rep 1: 1.94; nuclear/cytoplasmic p65 ratio, rep 2: 1.64; low cell count flag: enough cells to score; outcome: inactive

With Btd (biotinidase), what was measured?
p65 translocation robust z-score: 0.29; nuclear/cytoplasmic p65 ratio, rep 1: 1.69; nuclear/cytoplasmic p65 ratio, rep 2: 1.63; low cell count flag: enough cells to score; outcome: inactive

Which result is listed for Aga (aspartylglucosaminidase)?
p65 translocation robust z-score: -0.08; nuclear/cytoplasmic p65 ratio, rep 1: 1.47; nuclear/cytoplasmic p65 ratio, rep 2: 1.74; low cell count flag: enough cells to score; outcome: inactive

How did the screen score Efcab8 (EF-hand calcium binding domain 8)?
p65 translocation robust z-score: 3.4; nuclear/cytoplasmic p65 ratio, rep 1: 1.48; nuclear/cytoplasmic p65 ratio, rep 2: 2; low cell count flag: enough cells to score; outcome: active

Which result is listed for Nagk (N-acetylglucosamine kinase)?
p65 translocation robust z-score: -0.34; nuclear/cytoplasmic p65 ratio, rep 1: 1.64; nuclear/cytoplasmic p65 ratio, rep 2: 1.32; low cell count flag: enough cells to score; outcome: inactive

Entries above whose target name begins with E or e:
Elf4 (E74 like ETS transcription factor 4) | p65 translocation robust z-score: -0.2; nuclear/cytoplasmic p65 ratio, rep 1: 1.44; nuclear/cytoplasmic p65 ratio, rep 2: 1.34; low cell count flag: enough cells to score; outcome: inactive
Efcab8 (EF-hand calcium binding domain 8) | p65 translocation robust z-score: 3.4; nuclear/cytoplasmic p65 ratio, rep 1: 1.48; nuclear/cytoplasmic p65 ratio, rep 2: 2; low cell count flag: enough cells to score; outcome: active

Additional entries follow.
What did the screen give for Acsm2 (acyl-CoA synthetase medium-chain family member 2)?
p65 translocation robust z-score: -0.13; nuclear/cytoplasmic p65 ratio, rep 1: 1.55; nuclear/cytoplasmic p65 ratio, rep 2: 1.83; low cell count flag: enough cells to score; outcome: inactive

What is on record for Anapc5 (anaphase-promoting complex subunit 5)?
p65 translocation robust z-score: 0.5; nuclear/cytoplasmic p65 ratio, rep 1: 1.68; nuclear/cytoplasmic p65 ratio, rep 2: 1.7; low cell count flag: enough cells to score; outcome: inactive

With Tax1bp3 (Tax1 (human T cell leukemia virus type I) binding protein 3), what was measured?
p65 translocation robust z-score: 0.54; nuclear/cytoplasmic p65 ratio, rep 1: 1.43; nuclear/cytoplasmic p65 ratio, rep 2: 1.27; low cell count flag: enough cells to score; outcome: inactive

What is on record for Akr1b1 (aldo-keto reductase family 1 member B)?
p65 translocation robust z-score: -0.84; nuclear/cytoplasmic p65 ratio, rep 1: 1.46; nuclear/cytoplasmic p65 ratio, rep 2: 1.52; low cell count flag: enough cells to score; outcome: inactive

For Amz1 (archaelysin family metallopeptidase 1), what does the deposit list?
p65 translocation robust z-score: 0.08; nuclear/cytoplasmic p65 ratio, rep 1: 1.49; nuclear/cytoplasmic p65 ratio, rep 2: 1.5; low cell count flag: enough cells to score; outcome: inactive

How did the screen score Sptlc1 (serine palmitoyltransferase, long chain base subunit 1)?
p65 translocation robust z-score: -1.12; nuclear/cytoplasmic p65 ratio, rep 1: 1.39; nuclear/cytoplasmic p65 ratio, rep 2: 1.39; low cell count flag: enough cells to score; outcome: inactive

With Pld4 (phospholipase D family member 4), what was measured?
p65 translocation robust z-score: 0.09; nuclear/cytoplasmic p65 ratio, rep 1: 1.62; nuclear/cytoplasmic p65 ratio, rep 2: 1.69; low cell count flag: enough cells to score; outcome: inactive

For Pfkfb3 (6-phosphofructo-2-kinase/fructose-2,6-biphosphatase 3), what was measured?
p65 translocation robust z-score: 0.14; nuclear/cytoplasmic p65 ratio, rep 1: 1.65; nuclear/cytoplasmic p65 ratio, rep 2: 1.44; low cell count flag: enough cells to score; outcome: inactive

With Six2 (sine oculis-related homeobox 2), what was measured?
p65 translocation robust z-score: -1.8; nuclear/cytoplasmic p65 ratio, rep 1: 1.42; nuclear/cytoplasmic p65 ratio, rep 2: 1.17; low cell count flag: enough cells to score; outcome: active
